Assay results: patent EP3349734B1, “USE OF SOLUBLE AND INSOLUBLE FRACTIONS OF A CYCLODEXTRIN POLYMER AND OF MIXTURES THEREOF AS AN EXCIPIENT IN A TABLET” (Université de Lille, priority 2015, dated 2017)
At least one structure is not confirmed: it was looked up by name or label, or the drawing left a doubt.

Experiment: Aqueous solubility of the cyclodextrin or polymer itself
Assay type: physicochemical
Settings: solubility of the agent itself in water

**Q.** With `OC[C@H]1O[C@@H]2O[C@H]3[C@H](O)[C@@H](O)[C@@H](O[C@H]4[C@H](O)[C@@H](O)[C@@H](O[C@H]5[C@H](O)[C@@H](O)[C@@H](O[C@H]6[C@H](O)[C@@H](O)[C@@H](O[C@H]7[C@H](O)[C@@H](O)[C@@H](O[C@H]8[C@H](O)[C@@H](O)[C@@H](O[C@H]1[C@H](O)[C@H]2O)O[C@@H]8CO)O[C@@H]7CO)O[C@@H]6CO)O[C@@H]5CO)O[C@@H]4CO)O[C@@H]3CO` [βCD, β-cyclodextrine] as the compound, how does the “limite de solubilité / solubilité” value read?
**A.** Its value is 20 g/L.
